The entries are a selection whose mix differs from that of the whole data set. At the low end of the ranking the order means little.
What was measured:
Assay in all cases: DAPPL (digital affinity profiling via proximity ligation, sequencing)
Conditions in all cases: 10 mM Tris-HCl pH 7.5, 50 mM NaCl, 1 mM DTT, 4% glycerol, room temperature, 30 min; GST-TFs on glutathione beads, 16-mer random dsDNA library, 0.1% …; high values mean tight binding; double strand, one strand shown; scale: fold enrichment (6-mer frequency, TF over GST control)
[1] = molecular target: T1, ELK1 (UniProt P19419)
T1 sequence: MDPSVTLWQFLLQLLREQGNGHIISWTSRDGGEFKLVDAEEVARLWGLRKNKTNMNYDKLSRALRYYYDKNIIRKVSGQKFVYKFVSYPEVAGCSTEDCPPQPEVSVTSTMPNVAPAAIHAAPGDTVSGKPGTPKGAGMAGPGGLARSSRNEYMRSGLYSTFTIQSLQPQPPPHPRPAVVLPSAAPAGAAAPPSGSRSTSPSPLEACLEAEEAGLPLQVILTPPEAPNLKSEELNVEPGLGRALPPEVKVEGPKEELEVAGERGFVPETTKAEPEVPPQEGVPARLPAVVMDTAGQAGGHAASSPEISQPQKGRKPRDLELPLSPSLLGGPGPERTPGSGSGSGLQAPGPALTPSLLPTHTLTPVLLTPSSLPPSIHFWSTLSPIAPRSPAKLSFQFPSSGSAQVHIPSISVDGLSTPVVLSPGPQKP

[2] = molecular target: T2, SPIC (UniProt Q8N5J4)
T2 sequence: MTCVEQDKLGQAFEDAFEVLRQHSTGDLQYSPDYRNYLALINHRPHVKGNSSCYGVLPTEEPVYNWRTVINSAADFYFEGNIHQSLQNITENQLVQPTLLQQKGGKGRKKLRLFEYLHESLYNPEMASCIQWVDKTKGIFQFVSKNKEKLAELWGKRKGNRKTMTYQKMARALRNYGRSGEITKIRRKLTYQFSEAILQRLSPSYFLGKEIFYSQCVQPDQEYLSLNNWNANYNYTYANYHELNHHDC

[3] = molecular target: T3, ELK3 (UniProt P41970)
T3 sequence: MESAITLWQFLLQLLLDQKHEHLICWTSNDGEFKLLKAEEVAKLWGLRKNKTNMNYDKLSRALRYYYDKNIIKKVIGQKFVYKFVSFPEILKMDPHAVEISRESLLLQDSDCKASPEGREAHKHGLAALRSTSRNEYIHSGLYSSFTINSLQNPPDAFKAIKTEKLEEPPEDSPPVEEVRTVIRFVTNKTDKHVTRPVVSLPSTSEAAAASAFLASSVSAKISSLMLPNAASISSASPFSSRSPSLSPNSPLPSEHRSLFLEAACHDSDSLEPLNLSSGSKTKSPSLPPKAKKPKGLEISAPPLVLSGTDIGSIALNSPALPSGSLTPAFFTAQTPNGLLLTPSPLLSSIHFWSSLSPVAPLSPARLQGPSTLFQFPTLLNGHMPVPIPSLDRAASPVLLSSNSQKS

[4] = molecular target: T4, ETS2 (UniProt P15036)
T4 sequence: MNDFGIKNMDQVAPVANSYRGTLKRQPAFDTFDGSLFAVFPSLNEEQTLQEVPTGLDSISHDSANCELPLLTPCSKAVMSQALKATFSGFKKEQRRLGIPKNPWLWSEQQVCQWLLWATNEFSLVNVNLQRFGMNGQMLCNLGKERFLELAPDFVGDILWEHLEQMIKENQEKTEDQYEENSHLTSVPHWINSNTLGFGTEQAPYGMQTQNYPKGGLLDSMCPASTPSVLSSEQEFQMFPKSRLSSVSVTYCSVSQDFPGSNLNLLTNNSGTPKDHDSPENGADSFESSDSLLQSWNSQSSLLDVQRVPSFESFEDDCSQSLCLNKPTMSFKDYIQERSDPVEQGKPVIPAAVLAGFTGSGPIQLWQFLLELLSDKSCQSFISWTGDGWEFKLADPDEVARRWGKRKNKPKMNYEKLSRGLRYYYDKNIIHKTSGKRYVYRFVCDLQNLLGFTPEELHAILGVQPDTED

[5] = molecular target: T5, ETV3 (UniProt P41162-2)
T5 sequence: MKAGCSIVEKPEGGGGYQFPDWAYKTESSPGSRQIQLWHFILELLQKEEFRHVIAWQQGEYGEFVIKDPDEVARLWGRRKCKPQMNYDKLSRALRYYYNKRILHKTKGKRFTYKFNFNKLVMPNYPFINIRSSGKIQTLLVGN

Row | Sequence | binding signal [1] | binding signal [2] | binding signal [3] | binding signal [4] | binding signal [5]
1 | TCCGGC | 2.4 | 2.2 | – | – | –
2 | TCTCAA | 1.27 | 1.24 | 1.43 | 1.25 | –
3 | AACGTT | 1.15 | 1.23 | – | – | –
4 | GTTTTC | 1.2 | 1.1 | – | 1.16 | –
5 | ATTGCC | 1.27 | 1.29 | – | – | –
6 | ACGCCC | 1.21 | 0.957 | 1.11 | – | –
7 | ACTGGC | 1.12 | 1.28 | – | – | 1.07
8 | GCTTCA | 1.39 | 1.3 | – | – | –
9 | GAACAT | 1.02 | 0.999 | 1.16 | – | 1.08
10 | ACCTAA | 1.08 | 1.21 | 1.2 | – | –
11 | CATCGA | 0.989 | 1.06 | – | – | 1.08
12 | CATTTA | 1.23 | 1.17 | – | 1.31 | –
13 | GTGCTC | 1.18 | 1.21 | 0.976 | 1.26 | 1.25
14 | ATTTGA | 1.1 | 1.11 | – | 1.2 | –
15 | TTAGCG | 1.04 | 1.03 | 0.912 | – | –
16 | GCCTCA | 1.34 | 1.21 | 1.19 | – | –
17 | ATCTCC | 1.5 | 1.49 | – | 1.5 | –
18 | GCTTTC | 1.22 | 1.06 | 1.38 | – | –
19 | ACTCGC | 1.14 | 1.2 | 0.997 | – | –
20 | TGCCGC | 1.3 | 1.15 | – | 1.33 | 1.36
21 | GCGATG | 1.48 | 1.07 | – | – | –
22 | GCTCCA | 1.17 | 1.08 | – | – | –
23 | TGCAAA | 1.11 | 0.938 | 1.14 | – | 1.06
24 | CTTAGA | 1.11 | 1.27 | – | – | 1.07

Row | Sequence | binding signal [1] | binding signal [2] | binding signal [3] | binding signal [4] | binding signal [5]
25 | CCTGGG | 1.18 | 1.05 | 0.972 | – | –
26 | TTATGA | 1.15 | 1.26 | 1.22 | – | –
27 | AAAAGA | 1.19 | 0.999 | – | – | –
28 | TATCGA | 1.28 | 1.28 | 1.34 | – | 1.25
29 | TTAACT | 1.14 | 1.36 | 1.19 | – | –
30 | AAGCTC | 1.22 | 0.997 | – | – | 1.18
31 | AAGGTA | 1.08 | 0.992 | – | – | –
32 | CTTGAT | 1.53 | 1.41 | 1.34 | 1.35 | –
33 | TTCGTA | 1.44 | 1.42 | – | – | –
34 | ACCGAA | 1.04 | 1.12 | – | – | 1.02
35 | TAACAT | 1.26 | 1.46 | 1.28 | – | –
36 | CTGGCC | 1.13 | 0.955 | – | – | –
37 | CTGGAC | 1.07 | 1.1 | 0.995 | – | –
38 | TACTCG | 1.29 | 1.25 | – | – | 1.28
39 | TATGCG | 1.42 | 1.63 | – | 1.43 | –
40 | CCAAAA | 1.13 | 1.05 | – | 1.11 | 1.15
41 | AATGTC | – | 1.41 | – | 1.27 | –
42 | GCAAAA | – | 1.06 | 1.15 | 1.18 | 1.07
43 | CAAATA | 1.13 | 1.09 | 1.11 | – | –
44 | GCTCGT | 1.16 | 1.14 | 0.974 | – | –
45 | CGATGA | – | 0.948 | – | 0.954 | 0.961
46 | CCCGCA | – | 1.27 | – | 1.18 | –
47 | ATCTGA | 1.08 | 1.21 | 1.2 | – | –
48 | CTAAGC | – | 1.08 | – | 1.15 | 1.07

5 entries picked at random from those above:
Row | Sequence | binding signal [1] | binding signal [2] | binding signal [3] | binding signal [4] | binding signal [5]
10 | ACCTAA | 1.08 | 1.21 | 1.2 | – | –
18 | GCTTTC | 1.22 | 1.06 | 1.38 | – | –
6 | ACGCCC | 1.21 | 0.957 | 1.11 | – | –
35 | TAACAT | 1.26 | 1.46 | 1.28 | – | –
16 | GCCTCA | 1.34 | 1.21 | 1.19 | – | –

Remaining list, next part

Row | Sequence | binding signal [1] | binding signal [2] | binding signal [3] | binding signal [4] | binding signal [5]
49 | TTTCTT | – | 1.24 | – | 1.32 | 1.34
50 | GACCTA | – | 1.18 | – | 1.19 | –
51 | AATAAC | – | 1.42 | – | 1.27 | –
52 | AATAAT | – | 1.31 | – | 1.42 | 1.27
53 | GAATTT | – | 1.39 | – | 1.28 | –
54 | AACGTA | – | 1.02 | – | 0.979 | –
55 | TAAAGA | – | 0.996 | – | 1.08 | –
56 | TTGATT | – | 1.35 | – | 1.22 | –
57 | GCTCAG | – | 1.23 | – | 1.06 | –
58 | GAACCA | – | 0.996 | 0.968 | 0.971 | 0.971
59 | TGGTTT | – | 1.67 | – | 1.54 | –
60 | TGGTTA | – | 1.25 | – | 1.07 | 1.05
61 | CCTATG | – | 1.1 | 1.18 | 1.19 | 1.29
62 | CGATCG | 1.12 | 0.933 | 0.923 | – | –
63 | TAATTG | – | 1.31 | – | 1.42 | –
64 | TTCATA | – | 0.987 | – | 1.15 | –
65 | TTAGTT | – | 1.28 | – | 1.23 | –
66 | GCTTAG | – | 1.12 | 0.967 | 1.11 | 1.19
67 | TTAAGT | – | 1.25 | – | 1.16 | –
68 | TAGTTT | – | 1.21 | 1.23 | 1.19 | 1.32
69 | ATTAAT | – | 1.18 | – | 1.27 | –
70 | TTGGTG | – | 1.32 | – | 1.32 | –
71 | GTTTCC | – | 2.6 | – | 2.82 | –
72 | TATAAG | – | 1.1 | – | 1.17 | 1.15

Row | Sequence | binding signal [1] | binding signal [2] | binding signal [3] | binding signal [4] | binding signal [5]
73 | ATTGAA | – | 0.976 | – | 1.09 | –
74 | TTGCGC | – | 0.929 | – | 1.16 | –
75 | AGGAAA | – | 1.42 | – | 1.48 | –
76 | CCGTCC | – | 1.39 | – | 1.38 | –
77 | TTCCGT | – | 2.02 | – | 1.94 | –
78 | TATGGT | 1.3 | 1.49 | 1.17 | – | –
79 | AACGAA | – | 1.2 | – | 1.18 | –
80 | GGTATA | – | 0.998 | 0.984 | – | –
81 | TTAACC | 1.25 | – | – | – | –
82 | AAAATC | – | 1.07 | 1.1 | – | –
83 | AAATCC | 1.66 | – | – | – | –
84 | CCTCTA | 1.48 | – | – | – | –
85 | TGACGA | – | 0.883 | 0.979 | – | –
86 | AGCTTT | – | 1.03 | 1.13 | – | –
87 | ACAGAT | – | 0.923 | 0.978 | – | –
88 | TTCTGC | 1.49 | – | – | – | –
89 | ATGCAT | 1.21 | – | – | – | –
90 | TTCCAG | – | 1.02 | 1.07 | – | –
91 | CGATCT | 1.25 | – | – | – | –
92 | CGCCTC | – | 1.33 | 1.46 | – | –
93 | CTGTTT | – | 1.31 | 1.34 | – | –
94 | CGTACT | – | 1.12 | 1.26 | – | –
